A: 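Cell assay of Leishmania donovani living inside macrophages; the read-out is not stated. Tested at 30 µM. Direction is inferred from retests: higher values go with stronger inhibition. Of about 69,000 compounds tested this way, about 1,000 (1.5%) reached 50% or more in at least one test.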
B: 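Enzyme assay of tryptophanyl-tRNA synthetase; the read-out is not stated. Target: Tryptophan-tRNA ligase, Mycobacterium tuberculosis (UniProt P9WFT3). Compounds at 10 µM. Direction is not recorded; retested compounds ran higher, which suggests that high means inhibition. Of about 65,000 compounds tested this way, about 64 (0.098%) reached 50% or more in at least one test.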
C: 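Assay of Toxoplasma gondii numbers, read through their beta-galactosidase reporter with a colour substrate. Tested at 10 µM. The record gives no direction; the compounds picked for IC50 retests had high values, so higher reads as fewer parasites. Of about 67,000 compounds tested this way, about 260 (0.38%) reached 50% or more in at least one test.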
D: 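Coenzyme A biosynthesis protein CoaBC, Mycobacterium tuberculosis (UniProt P9WNZ1). Enzyme assay of CoaBC with a phosphate dye (Biomol Green) read at 650 nm. Concentration: 30 µM. Direction is inferred from only a few compounds that gave an IC50; most scored high, so higher reads as stronger inhibition. Most strong results did not repeat in a second test. About 67,000 compounds were tested under these conditions; 0.06% (about 40) showed 50% or more at least once.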

Amino acid sequences for entries named in this document (tags omitted).
UniProt P9WFT3, whole entry: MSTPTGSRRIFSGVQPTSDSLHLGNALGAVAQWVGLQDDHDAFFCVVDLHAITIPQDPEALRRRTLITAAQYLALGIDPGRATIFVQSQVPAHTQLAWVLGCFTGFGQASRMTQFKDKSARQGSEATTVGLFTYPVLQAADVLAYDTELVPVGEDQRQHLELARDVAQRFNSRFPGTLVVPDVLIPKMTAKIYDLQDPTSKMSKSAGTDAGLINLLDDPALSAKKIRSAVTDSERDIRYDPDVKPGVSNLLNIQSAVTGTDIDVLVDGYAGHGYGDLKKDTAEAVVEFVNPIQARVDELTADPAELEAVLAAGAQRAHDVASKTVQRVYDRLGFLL
UniProt P9WNZ1, whole entry: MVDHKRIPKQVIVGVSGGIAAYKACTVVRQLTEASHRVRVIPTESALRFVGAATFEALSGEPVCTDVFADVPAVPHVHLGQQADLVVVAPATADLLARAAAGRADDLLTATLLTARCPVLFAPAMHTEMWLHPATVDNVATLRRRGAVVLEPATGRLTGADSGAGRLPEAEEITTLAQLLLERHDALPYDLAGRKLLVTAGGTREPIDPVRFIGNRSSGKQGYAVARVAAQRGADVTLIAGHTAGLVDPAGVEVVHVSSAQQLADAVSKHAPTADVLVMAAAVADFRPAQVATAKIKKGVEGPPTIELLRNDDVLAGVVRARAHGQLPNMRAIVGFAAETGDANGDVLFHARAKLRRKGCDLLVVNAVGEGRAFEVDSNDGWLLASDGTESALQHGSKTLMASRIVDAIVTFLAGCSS

Each number is a percent effect as filed. The controls that fix the scale are not given in the record; negative values are as filed. The compounds are a random part of those screened. Two or more numbers in one place are separate tests of the same structure; such repeats can differ widely. A dash means the value is not listed here; it may have been measured.

| # | SMILES | A | B | C | D |
|---|---|---|---|---|---|
| 1 | `COc1nn(C)c2c1CCCN(C(=O)c1ccc(C)c(F)c1)C2` | -54.6% | 2.956% | 10.85% | 4.225% |
| 2 | `Cc1occc1C(=O)N1C[C@@H]2CCCO[C@@H]2[C@H](N(C)Cc2ccco2)C1` | - | 1.952% | - | 2.836% |
| 3 | `COc1ccc(N2Cc3nc(N4CCCC4)ncc3C2=O)cc1Cl` | 31.94% | -2.441% | -14.31% | -3.165% |
| 4 | `O=C(CSCC1CC1)N1CCCC(c2nccn2Cc2ccccn2)C1` (configuration not stated) | 17.72% | -2.02% | 8.662% | 2.545% |
| 5 | `CC(C)CN1C[C@H]2C[C@H](C(=O)Nc3cccnc3)[C@@H](C1)O2` | - | -1.482% | - | 9.769% |
| 6 | `O=C(Cc1ccc2c(c1)CCCC2)NCCc1ccccn1` | 31.62% | -0.2924% | -6.089% | 9.516% |
| 7 | `CC(C)C(O)C1CCN(c2ccnc(C(=O)NCc3ccco3)c2)CC1` (configuration not stated) | 16.22% | 0.1698% | 3.137% | 6.829% |
| 8 | `Cc1cccc(OCC(=O)N2CCN(C3CCOC3=O)CC2)c1C` (configuration not stated) | 21.32% | -5.226% | 9.891% | -4.773% |
| 9 | `COCc1noc(C2(c3ccc(Cl)cc3)CCOCC2)n1` | 22.74% | -3.439% | 8.091% | 0.3205% |
| 10 | `CCN(c1ccc(C(=O)N2CCC(C)CC2)cc1)S(=O)(=O)CC` | -2.061% | -1.027% | -61.61% | -3.008% |
| 11 | `COC1COC2(CCN(Cc3ccc4c(c3)OCO4)CC2)C1.O=C(O)C(F)(F)F` (configuration not stated) | 2.758% | - | -14.83% | - |
| 12 | `CCc1cc(N2CCN3CCCCC3C2)n2nccc2n1` (configuration not stated) | 4.887% | -3.06% | 18.4% | 3.68% |
| 13 | `O=C1CCCN1CC1CN(C(=O)N2CCOCC2)Cc2nccn2C1` (configuration not stated) | 5.747% & 25.58% | 3.586% | 2.37% | -1.895% |
| 14 | `Cn1cc(CN2C[C@H]3CCC[C@@]3(COCC3CC3)C2)cn1` | - | - | - | -1.733% |
| 15 | `O=C(O)C(F)(F)F.O=C(O)C(F)(F)F.[H][C@]12C[C@@H](Cn3cncn3)N(C)[C@@]1([H])CCN(Cc1cccc(C#N)c1)C2` | 18.34% | - | -5.18% | - |
| 16 | `Cc1cc(N(C)CCC(O)c2ccccc2)n2nccc2n1` (configuration not stated) | 16.69% | 3.221% | -47.18% | 11.04% |
| 17 | `O=C(N[C@]12CC1CN(C(=O)c1ccco1)C2)c1cccc(F)c1` (some centres not stated) | -4.053% | -0.7276% | 4.72% | -1.527% |
| 18 | `Cl.O=C(c1cccnc1)N1CCC2(CC1)CNc1c(F)cccc12` | 28.07% | - | -3.132% | - |
| 19 | `CC(C)[C@@H]1CN(c2ccc(C(F)(F)F)cn2)C[C@H]1NS(C)(=O)=O` | 20.02% | -3.536% | -2.744% | -0.6135% |
| 20 | `O=C(COc1ccccc1)NCC1CCN(Cc2ccsc2)CC1` | 8.301% | 3.962% | 3.061% | 3.008% |
| 21 | `CC(C)N1c2sc(-c3ccsc3)nc2CC1C(=O)NC1CC1` (configuration not stated) | 0.8931% | -2.562% | -4.722% | 8.402% |
| 22 | `COc1ncnc2c1CCN(c1cc(C(F)(F)F)ncn1)CC2` | 7.871% | -4.722% | 1.175% | 2.665% |
| 23 | `Nc1nc(C(=O)NCC2CCC3(CCNCC3)CO2)cs1` (configuration not stated) | - | -2.697% | - | - |
| 24 | `O=C(CC1CC1)N1CCC2(CC1)CC(Oc1ccccc1)CO2` (configuration not stated) | 24.34% | -0.2288% | 0.4214% | 15.13% |
| 25 | `Cc1cc(N2CCC(N(C)C(=O)c3cccs3)CC2)nc(C)n1` | -20.66% | 0.4079% | -13.96% | 7.215% |
| 26 | `O=C(Nc1cccnc1)[C@H]1C[C@@H]2CCN(Cc3nccs3)C[C@@H]2O1` | - | -8.313% | - | 4.061% |
| 27 | `Cc1cnc2n(c1=O)CC(C(=O)Nc1cccc3cccnc13)CS2` (configuration not stated) | 32.33% | 8.054% | 7.115% | -10.02% |
| 28 | `COc1cc(CNC2CCCN(c3cccnn3)C2)cc2c1OCO2` (configuration not stated) | 4.66% | -1.037% | -9.276% | 1.733% |
| 29 | `Cc1ncccc1Oc1ncnc(N2CCC(O)(CO)CC2)c1C` | 10.34% | -5.556% | -23.08% | -1.85% |
| 30 | `Cc1cnn(Cc2ccc(NC(=O)N[C@@H]3C=C[C@H](CO)C3)cc2)c1` | 28.45% | 1.791% | -6.261% | 6.329% |
| 31 | `O=C(NS(=O)(=O)c1cccc(C(F)(F)F)c1)c1cscn1` | 14.99% | -2.42% | -14.45% | 0.7426% |
| 32 | `CC(=O)N1C[C@@H](c2ccsc2)[C@@H]2CN(CC3CCCCC3)CC[C@@H]21` | - | - | - | 5.422% |
| 33 | `CC(=O)N1CCC(c2cnc(NC3CCOCC3)cn2)CC1` | 35.96% | -2.326% | 2.254% | 4.612% |
| 34 | `Cc1oc(-c2cccc(F)c2F)nc1CN(C)CCC(C)(C)O` | 27.28% | -0.7776% | 4.447% | -2.785% |
| 35 | `O=C1[C@H]2CC[C@H](CN(Cc3nnc(C4CC4)o3)C2)N1Cc1cscn1` | - | 2.79% | - | 4.132% |
| 36 | `O=C(Cc1ccccn1)N1CCC2(CCCN(CC3CCOCC3)C2)C1` (configuration not stated) | 6.232% | -2.294% | -0.8087% | 1.869% |
| 37 | `CC(C)Cn1ncc(C(=O)O)c1C1CC1` | -5.5% | 2.857% | -28.97% | 2.893% |

The last 3 entries again:

{"smiles": "O=C1[C@H]2CC[C@H](CN(Cc3nnc(C4CC4)o3)C2)N1Cc1cscn1", "B": 2.79, "D": 4.132}
{"smiles": "O=C(Cc1ccccn1)N1CCC2(CCCN(CC3CCOCC3)C2)C1", "stereo": "configuration not stated", "A": 6.232, "B": -2.294, "C": -0.8087, "D": 1.869}
{"smiles": "CC(C)Cn1ncc(C(=O)O)c1C1CC1", "A": -5.5, "B": 2.857, "C": -28.97, "D": 2.893}

Data taken from ChEMBL document CHEMBL3988442, “University of Dundee, Small-Polar-MMV Screening Library” (2021).